# Several values for one entry are separate records, joined by “and”; a condition that tells them apart may be missing. Equal entries are not always repeated. This is one part of the list. These are further read-outs of the screen, such as a control signal, another cell line or another target. No call is given for them. Most of these compounds were active or inconclusive in the main read-out, so they are no random draw. The note in brackets gives the kind of curve behind each potency; many fits are weak.
# Assay: qHTS Assay to Find Inhibitors of Chronic Active B-Cell Receptor Signaling
# Conditions: ABC-DLBCL IkBa-CBG/CBR reporter, luminescence ratio (green luciferase fused to IkBa over red control in TMD8 lymphoma cells), 4 h; measured here: CBR red luminescence, cell number
# In short: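 TMD8 human ABC-DLBCL cells with doxycycline-inducible IκBα–green luciferase fusion and unfused red luciferase, in 0.5% FBS medium; compounds up to 46 uM, 4 h at 37C. Green/red luminescence ratio, filter-overlap corrected, fitted to concentration-response curves.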
row,Structure (SMILES),AC50
1,COc1ccc(-c2noc(CSc3nc4sc(C)c(C)c4c(=O)n3-c3ccccc3)n2)cc1OC,"1.64 µM [rising, full curve]"
2,O=C(CCc1ccccc1)NC1(Cc2ccccc2)CCN(CCCc2ccccc2)C1=O (centres undefined),"23.1 µM [falling, partial curve, poor fit]"
3,O=C(Cc1ccccc1F)Nc1nc(-c2ccc(F)c(F)c2)cs1,"28.2 µM [falling, single point]"
4,COc1ccc(S(=O)(=O)N2CCOCC2)cc1NC(=O)c1cc(=O)[nH]c2ccccc12,"0.13 µM [rising, full curve, poor fit]"
5,CC(=O)N1N=C(c2ccc(Br)cc2)CC1c1cn(C)c2ccccc12 (centres undefined),"1.3 µM [falling, partial curve, poor fit]"
6,COc1cc2[nH]c3c(N4CCN(c5ccc(Cl)cc5)CC4)ncnc3c2cc1OC,"35.5 µM [rising, single point]"
7,CCOC(=O)N1CCN(C(=O)c2cc3ccc(OC)cc3[nH]2)CC1,"0.562 µM [rising, partial curve, poor fit]"
8,O=C(CN1C(=O)C2CC=CCC2C1=O)Nc1nc2ccccc2[nH]1 (centres undefined),"8.91 µM [falling, partial curve]"
9,CC(=O)Nc1ccc(S(=O)(=O)N[C@@H](C)C(=O)OCc2cc([N+](=O)[O-])cc3c2OCOC3)cc1,"17.8 µM [rising, single point]"
10,O=C1C(Cl)=C(Nc2cccc(O)c2)C(=O)N1Cc1ccccc1,"10 µM [falling, partial curve, poor fit]"
11,CCOc1cccc(C(=O)Nc2ccc3oc(-c4cccnc4)nc3c2)c1,"3.98 µM [falling, single point]"
12,COc1cccc(CN(C)C(=O)CSCC(=O)Nc2cccc(C)c2)c1OC,"2.31 µM [rising, single point]"
13,CN(CC(=O)Nc1ccc(Cl)cc1)C(=O)CNC(=O)Cc1cccc2ccccc12,"0.259 µM [falling, full curve, poor fit]"
14,O=C(NC(=S)Nc1ccc(Oc2ccccc2)cc1)c1ccc(Cl)cc1,"8.2 µM [falling, partial curve, poor fit]"
15,COc1cc(-c2cc(-c3ccccc3)nc(SCC(=O)O)c2C#N)cc(OC)c1OC,"10 µM [falling, partial curve]"
16,COC(=O)c1cccc(NC(=O)CN2CCc3ccccc3C2)c1,"17.8 µM [falling, single point]"
17,Cc1ccccc1C(=O)Nc1ccc(O)cc1C(=O)O,"7.08 µM [falling, partial curve]"
18,COc1cccc(/C=N/Nc2ncccc2[N+](=O)[O-])c1OC,"8.91 µM [falling, partial curve, poor fit]"
19,Cc1cccc(/C(N)=N/OC(=O)c2ccc(Cl)cc2Cl)c1,"1.84 µM [rising, full curve, poor fit]"
20,Cc1nc2c(c(=O)c3ccccc3n2C)c(=O)n1C1CCCCCC1,"35.5 µM [falling, single point]"
21,COc1cccc(NC(=O)Nc2ccccc2C(N)=O)c1,"15.8 µM [falling, partial curve]"
22,Cc1ccc2c(c1)CCCN2C(=O)c1ccc2c(c1)OCO2,"32.6 µM [rising, partial curve, poor fit]"

row,Structure (SMILES),AC50
1,O=C(CNc1ccc2ccccc2c1)N/N=C/c1ccncc1,"12.6 µM [falling, partial curve]"
2,Cc1nc(-c2cccc(NC(=O)c3ccc(-n4cccn4)cc3)c2)cs1,"14.6 µM [falling, partial curve, poor fit]"
3,Cc1c(Cl)cccc1NC(=S)N1CCCN(Cc2ccc(F)cc2)C1,"35.5 µM [falling, single point]"
4,CCn1c(=O)cc(SCC(=O)NCc2ccco2)c2ccccc21,"12.6 µM [rising, single point]"
5,O=C(Cc1ccc(Cl)cc1)SCc1ccccc1,"7.31 µM [rising, partial curve]"
6,OCCN(Cc1ccccc1)Cc1ccc(Cl)cc1Cl,"4.47 µM [rising, full curve]"
7,O=c1[nH]c2ccccc2nc1-c1ccc(Cl)cc1,"0.224 µM [rising, full curve, poor fit]"
8,c1csc(-c2nc3ccccn3c2NC2CCCCC2)c1,"25.1 µM [falling, single point]"
9,O=Cc1ccc(OCc2ccc3ccccc3c2)cc1,"1.58 µM [falling, full curve]"
10,N#CCSc1ncccc1-c1nc2ccccc2[nH]1,"20.6 µM [falling, single point]"
11,O=c1c2ccccc2ncn1-c1ccc([N+](=O)[O-])cc1[N+](=O)[O-],"35.5 µM [falling, single point]"
12,Cc1csc(SCC(=O)NC23CC4CC(CC(C4)C2)C3)n1,"3.66 µM [falling, full curve, poor fit]"
13,Cc1ccc(N2C(=O)[C@@H]3[C@H](C2=O)[C@H]2C=CC=NN2[C@@H]3C(=O)Nc2ccccc2)cc1,"17.8 µM [falling, partial curve]"
14,C#CCOCCOCCOCCNc1nc(N2CCN(C(=O)CCCCCCCCCCNC(=O)[C@H](CO)n3cc(CCCSC)nn3)CC2)nc(N2CCN(C(=O)CCCCCCCCCCNC(=O)[C@@H]([C@H](C)O)n3cc(C)nn3)CC2)n1,"3.26 µM [rising, partial curve, poor fit]"
15,CCCOc1ccc(C(=O)CCN2CCN(C(=O)OCC)CC2)cc1,"7.08 µM [falling, partial curve]"
16,CNc1nnc(-c2ccc(N(C)C)cc2)s1,"18.4 µM [falling, partial curve]"
17,Cc1cc(C)c(C)c(C(=O)C2OC(=O)C(C)(C)C(=O)C2(C)C)c1C (centres undefined),"2.31 µM [rising, full curve]"
18,COc1ccc(-c2c(C#Cc3ccsc3)c3cc(-c4ccc5[nH]ccc5c4)ccc3n2C)cc1,"13 µM [rising, partial curve, poor fit]"
19,CCN(CC)Cc1oc(-c2ccccc2)cc1C(=O)O,"15.8 µM [rising, partial curve, poor fit]"
20,Cc1ccc(S(=O)(=O)Oc2ccc(/C=N/NC(=O)c3nn(C)cc3Cl)cc2)cc1,"2.91 µM [falling, partial curve, poor fit]"
21,CCOC(=O)c1cc(-c2ccccc2)n(CCC(=O)NC2CCCCC2)c1C,"8.91 µM [rising, partial curve]"
22,O=C(Cn1c(=O)n2ncnc2c2c3c(sc21)CCCC3)c1ccccc1,"14.6 µM [rising, partial curve]"

row,Structure (SMILES),AC50
1,Cc1cc(SCC(=O)N2CCN(C(=O)c3ccco3)CC2)c(C)cc1Br,"18.4 µM [falling, partial curve]"
2,CC(=O)c1ccc2c(c1)Nc1ccccc1S2,"1.46 µM [rising, full curve, poor fit]"
3,CC(C)C(=O)Nc1nc(-c2ccccc2)ns1,"20.6 µM [falling, single point]"
4,COc1ccc(CCNC(=O)CSc2nc(N)c3c(C)c(C)oc3n2)cc1OC,"18.4 µM [rising, single point]"
5,CCn1c(SCC(=O)Nc2ccccc2N2CCOCC2)nnc1-c1ccccc1,"4.61 µM [falling, single point]"
6,C=CCNC(=O)NC(=O)CN1C(=O)NC(c2ccccc2)(c2ccccc2)C1=O,"4.47 µM [falling, partial curve, poor fit]"
7,COc1ccc(Br)cc1CNC(=O)C1CCN(C(=O)N(C)C)CC1,"35.5 µM [rising, single point]"
8,CCC(CC)NC(=O)c1ccc(NS(=O)(=O)c2ccc3[nH]c(=O)[nH]c3c2)cc1,"14.1 µM [falling, single point]"
9,COc1cc2c3nnc(-c4ccc(F)cc4)c-3cn(Cc3ccccc3F)c2cc1OC,"14.1 µM [rising, partial curve]"
10,Cc1[nH]nc(SCC(=O)N2CCCCCC2)c1[N+](=O)[O-],"11.2 µM [falling, partial curve]"
11,C=CCN(c1ccc(C(=O)Nc2ccc3c(c2)OCO3)cc1)S(C)(=O)=O,"2.82 µM [falling, full curve, poor fit]"
12,Cc1[nH]n(-c2ccccc2)c(=O)c1N=Nc1ccccc1O,"0.126 µM [falling, full curve, poor fit]"
13,O=[N+]([O-])c1ccccc1/C=N/OCc1ccccc1,"8.91 µM [rising, partial curve, poor fit]"
14,COC(=O)c1ccccc1NC(=O)CNc1cc(Cl)ccc1N1CCOCC1,"8.91 µM [falling, partial curve, poor fit]"
15,O=C(NC1CC1)c1c[nH]c2ccc(S(=O)(=O)Nc3cccc(C(F)(F)F)c3)cc2c1=O,"0.794 µM [falling, full curve, poor fit]"
16,CCCCn1c(=O)[nH]c(=O)c2c1nc(-c1cc3c(cc1Br)OCO3)n2C,"22.4 µM [rising, partial curve, poor fit]"
17,CC1=CC(C)=Nc2ccc(C)cc2N1,"6.51 µM [rising, single point] and 3.66 µM [rising, full curve]"
18,Clc1cccc(-c2nnc(-c3ccccc3)o2)c1,"20.6 µM [falling, single point]"
19,CC1CCCCC1NC(=O)/C(C#N)=C/c1ccccc1F (centres undefined),"14.6 µM [falling, partial curve]"
20,CN1C(=O)Cc2cc(S(=O)(=O)Nc3ccc(Cl)cc3)ccc21,"8.91 µM [falling, partial curve, poor fit]"

# Three structures from above, ordered by formula weight, smallest number first:
row,Structure (SMILES),AC50
2,CC(=O)c1ccc2c(c1)Nc1ccccc1S2,"1.46 µM [rising, full curve, poor fit]"
5,CCn1c(SCC(=O)Nc2ccccc2N2CCOCC2)nnc1-c1ccccc1,"4.61 µM [falling, single point]"
15,O=C(NC1CC1)c1c[nH]c2ccc(S(=O)(=O)Nc3cccc(C(F)(F)F)c3)cc2c1=O,"0.794 µM [falling, full curve, poor fit]"

# — PubChem BioAssay AID493014 (National Center for Advancing Translational Sciences (NCATS), 2011)
